Primary screen of a compound library

Amino acid sequences for entries named in this document (tags omitted). Residues count along the entry.
UniProt Q8IDJ8, 1-583: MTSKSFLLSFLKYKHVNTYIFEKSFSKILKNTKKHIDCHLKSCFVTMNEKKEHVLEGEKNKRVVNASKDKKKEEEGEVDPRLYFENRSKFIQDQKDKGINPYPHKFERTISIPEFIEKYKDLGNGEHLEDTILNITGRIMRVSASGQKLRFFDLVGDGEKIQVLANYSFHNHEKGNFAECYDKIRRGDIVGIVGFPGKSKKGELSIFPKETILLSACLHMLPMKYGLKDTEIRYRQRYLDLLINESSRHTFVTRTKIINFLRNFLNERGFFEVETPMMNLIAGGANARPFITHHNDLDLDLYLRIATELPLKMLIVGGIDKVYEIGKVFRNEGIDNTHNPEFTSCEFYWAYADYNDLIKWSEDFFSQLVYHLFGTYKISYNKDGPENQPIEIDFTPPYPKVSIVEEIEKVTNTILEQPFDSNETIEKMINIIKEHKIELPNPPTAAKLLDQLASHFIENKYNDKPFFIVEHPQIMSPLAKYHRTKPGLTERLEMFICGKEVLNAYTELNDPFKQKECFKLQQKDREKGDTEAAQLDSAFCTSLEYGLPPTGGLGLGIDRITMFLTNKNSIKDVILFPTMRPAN
UniProt P9WFT3, whole entry: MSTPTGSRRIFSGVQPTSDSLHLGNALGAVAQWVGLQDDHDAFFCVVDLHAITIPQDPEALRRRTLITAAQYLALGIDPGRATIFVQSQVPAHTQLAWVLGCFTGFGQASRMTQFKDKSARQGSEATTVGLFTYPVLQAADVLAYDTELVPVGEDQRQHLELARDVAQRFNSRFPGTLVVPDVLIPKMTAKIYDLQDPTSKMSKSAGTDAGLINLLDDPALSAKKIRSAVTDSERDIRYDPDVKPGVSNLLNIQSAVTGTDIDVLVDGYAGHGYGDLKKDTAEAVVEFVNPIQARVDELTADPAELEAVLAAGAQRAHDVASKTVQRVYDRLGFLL

Data taken from ChEMBL document CHEMBL3988442, “University of Dundee, Small-Polar-MMV Screening Library” (2021).

PfKRS1: 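Enzyme assay of the cytosolic lysyl-tRNA synthetase in 384-well plates, read by luminescence. Target: Lysine-tRNA ligase, Plasmodium falciparum 3D7 (UniProt Q8IDJ8). Concentration: 30 µM. Higher reads as stronger inhibition, judged from the few compounds that gave an IC50. Of about 69,000 compounds tested this way, about 49 (0.071%) reached 50% or more in at least one test.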
MtTrpRS: 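Enzyme assay of tryptophanyl-tRNA synthetase; the read-out is not stated. Target: Tryptophan-tRNA ligase, Mycobacterium tuberculosis (UniProt P9WFT3). Tested at 10 µM. Higher most likely means stronger inhibition; the record gives no direction and few retests gave an IC50. Size under these conditions: about 65,000 compounds, about 64 of them at 50% or above in at least one test.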
Leishmania in macrophages: 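Cell assay of Leishmania donovani living inside macrophages; the read-out is not stated. Compounds at 30 µM. Higher reads as stronger inhibition (inferred: compounds with an IC50 in retests scored well above the rest). Of about 69,000 compounds tested this way, about 1,000 (1.5%) reached 50% or more in at least one test.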

Each number is a percent effect as filed. The record does not define 0% and 100%; most values in the screen are far below 50% and negative numbers occur (in some assays of this library far below -100). Compounds were drawn at random from those tested, without regard to their results. Two or more numbers in one place are separate tests of the same structure; such repeats can differ widely.

compound: O=C(CCc1ccsc1)N1CCC(C(=O)O)(c2ccccc2)CC1
PfKRS1: -2.128%
MtTrpRS: -0.2244%
Leishmania in macrophages: 15.76%

compound: CCOC(=O)CCNC(=O)c1cc(Cl)cc2cccnc12
PfKRS1: 4.659%
MtTrpRS: 4.703%
Leishmania in macrophages: 13.76% and 18.6%

compound: Cc1cc(C)c(C(=O)N2CCCC(O)(CN3CCCC3)C2)cc1C (configuration not stated)
PfKRS1: 2.778%
MtTrpRS: -7.121%
Leishmania in macrophages: 23.92%

compound: CCCNC(=O)c1cc2c(s1)CCN2C(=O)CN(C)C
PfKRS1: 1.683%
MtTrpRS: -2.351%

compound: CCn1nc2c(cc1=O)CN(Cc1nnc(C3CC3)o1)CC2
PfKRS1: 4.93%
MtTrpRS: 1.814%
Leishmania in macrophages: 2.959%

compound: Cc1nn(C)c(Cl)c1C1CCCN1CC(=O)NCc1ccco1 (configuration not stated)
PfKRS1: 0.3857%
MtTrpRS: -1.467%
Leishmania in macrophages: 16.38%

compound: O=C(O)C(F)(F)F.O=C(O)C(F)(F)F.c1cnn(Cc2cnc3n2CCN(CC2CCCCC2)C3)c1
Leishmania in macrophages: -19.5%

compound: CC(C)NC1CCN(CCc2ccc3c(c2)CCO3)CC1
PfKRS1: 1.915%
MtTrpRS: -1.699%
Leishmania in macrophages: 31.12%

compound: CC1c2ncc(COCC3CCOCC3)n2CCN1Cc1cccnc1 (configuration not stated)
PfKRS1: 4.637%
MtTrpRS: -3.597%

compound: CC(C)c1nc(C2CCCN2Cc2ccccc2C#N)no1 (configuration not stated)
PfKRS1: 0.2203%
MtTrpRS: 0.5596%
Leishmania in macrophages: 12.38%

compound: [H][C@@]12CCN(c3cnccn3)C[C@@]1(C(=O)O)CCCN2Cc1cnn(C)c1
Leishmania in macrophages: 16.65%

compound: O=C([C@H]1CCCO1)N1CCN(Cc2cccnc2)c2ncccc2C1
PfKRS1: -4.812%
MtTrpRS: -5.762%
Leishmania in macrophages: -9.265%

compound: CN(CCOc1cccc(S(C)(=O)=O)c1)c1ccccc1
PfKRS1: 1.126%
MtTrpRS: 0%
Leishmania in macrophages: 9.079%

compound: Cc1nc(CN2C(=O)CC3(CCN(C(N)=O)CC3)c3ccccc32)cs1
PfKRS1: 1.695%
MtTrpRS: -6.492%

compound: COc1ccccc1OCCCc1cccc(C#N)n1
PfKRS1: 6.124%
MtTrpRS: 1.043%
Leishmania in macrophages: 17.66%

compound: Cc1cccc(N2CC[C@@H]3[C@@H](CO[C@H]3CNS(C)(=O)=O)C2)n1
PfKRS1: -2.92%
MtTrpRS: 14.61%

compound: CCC(CC)NC(=O)c1ccc2c(c1)C(c1nc[nH]n1)CN2S(C)(=O)=O (configuration not stated)
PfKRS1: 1.865%
MtTrpRS: -6.364%
Leishmania in macrophages: 15.13%

compound: CC(C)[C@H]1CN(CCCO)C[C@@H]1NC(=O)CCC(F)(F)F
PfKRS1: 1.775%
MtTrpRS: 1.932%
Leishmania in macrophages: -10.59%

compound: COc1ccc2c(c1)OCC(Cc1cc(N3CCCC3)cnn1)C2 (configuration not stated)
PfKRS1: 4.853%
MtTrpRS: 3.846%
Leishmania in macrophages: 21.44%

compound: COCCNC(=O)[C@H]1CN(Cc2scnc2C)C[C@H]2OCC[C@@H]12
PfKRS1: -2.275%
MtTrpRS: -1.727%

compound: O=S(=O)(CC1CCCN1S(=O)(=O)c1cccnc1)c1ccccc1 (configuration not stated)
PfKRS1: 0.8761%
MtTrpRS: -2.72%
Leishmania in macrophages: -12.87%

The first 2 entries again:

compound	PfKRS1	MtTrpRS	Leishmania in macrophages
O=C(CCc1ccsc1)N1CCC(C(=O)O)(c2ccccc2)CC1	-2.128%	-0.2244%	15.76%
CCOC(=O)CCNC(=O)c1cc(Cl)cc2cccnc12	4.659%	4.703%	13.76% and 18.6%